This note sets out measurements from patent publication US20250353911A1.

These are yes or no findings as the source states them, for the method shown. Binding can be weak; no strength is given.

Test [1] has as its target cynomolgus monkey FcRn on monocytes (cynomolgus monkey). Nature of the test: receptor occupancy by flow cytometry on monocytes from whole blood of dosed cynomolgus monkeys.
Test [2] addresses human FcRn on primary human monocytes (PBMC) (human). Nature of the test: flow cytometry on fixed and permeabilized human PBMC, monocyte gate, pH 7.4 and pH 6.
For test [3] the target is unchanged. Nature of the test: flow cytometry, fixed and permeabilized human PBMC, gated monocytes, pH 6, AF647 detection antibody.
Test [4] shares this target. Nature of the test: flow cytometry, fixed and permeabilized human PBMC, gated monocytes, pH 7.4, AF647 detection antibody.

B1: cx11642 (B10a.v2.1 VHH x B10a.v2.1 VHH x hz4A01v51 VHH) (bispecific antibody)
chain: EVQLLESGGGEVQPGGSLRLSCAASGSIANVDLMAWHRQAPGKQREPIAVINDAGSTYYAESVKGRFTISRDNAKNTLYLQMNSLRAEDTAVYYCNTATWRGGERYADWGQGTLVTVKPGSGGGSEVQLLESGGGEVQPGGSLRLSCAASGSIANVDLMAWHRQAPGKQREPIAVINDAGSTYYAESVKGRFTISRDNAKNTLYLQMNSLRAEDTAVYYCNTATWRGGERYADWGQGTLVTVKPGSGGGSEVQLVESGGGEVQPGGSLRLSCAASGFTFSTSGMVWVRQAPGKGLEWVSTISDDARITVYAESVKGRFTISRDNAKNTVYLQMNSLRAEDTAVYYCATYRAGSRIGSYEDYYRGQGTLVTVKPGG
Regarding B1, the binding entry in test [1] is reported as “binds”.

B2: cx11558 (B10a.v2.1 VHH x hz4A01v51 VHH) (bispecific antibody)
chain: EVQLLESGGGEVQPGGSLRLSCAASGSIANVDLMAWHRQAPGKQREPIAVINDAGSTYYAESVKGRFTISRDNAKNTLYLQMNSLRAEDTAVYYCNTATWRGGERYADWGQGTLVTVKPGSGGGSEVQLVESGGGEVQPGGSLRLSCAASGFTFSTSGMVWVRQAPGKGLEWVSTISDDARITVYAESVKGRFTISRDNAKNTVYLQMNSLRAEDTAVYYCATYRAGSRIGSYEDYYRGQGTLVTVKPGG
Consider B2, for which the binding result in test [2], in test [1], in test [3] and in test [4] was “binds” each time.

B3: cx12007 (B10a.v2.4 VHH x hz4A01v51.12 VHH) (bispecific antibody)
chain: EVQLLESGGGKVQPGGSLRLSCAASGSIANVDLMAWHRQAPGKQREPIAVINDAGSTYYAESVKGRFTISRDNAKNTLYLQMNSLRAEDTAVYYCNTATWRGGERYADWGQGTLVTVEPGSGGGSEVQLLESGGGKVQPGGSLRLSCAASGFTFSTSGMVWVRQAPGKGLEWVSTISDDARITVYAESVKGRFTISRDNAKNTVYLQMNSLRAEDTAVYYCATYRAGSRIGSYEDYYRGQGTLVTVEPGG
For the molecule B3, in test [1], the binding entry is “binds”.
